The other results are listed elsewhere or left out.
Tests used:
Assay in all cases: log2 fold change, soluble protein after heating vs DMSO (PISA); higher = thermal stabilisation; K562 lysate, 10 uM; active = over 0.2 and 3.5 SD of the protein, either way, in both replicates (recomputed)
[1] = compound: C1=CC=C(C=C1)[C@H](COC2=CC3=C(C=C2)NC(=O)N3)NC(=O)C4=CC=CN(C4=O)CC5=CC(=C(C=C5)F)F
Procedure, shortened: (§1)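 K562 pellets were dounce-homogenised in PBS pH 7.4 with 1 mM MgCl2, and the crude extract at 1 mg/mL protein was treated with 10 μM compound for 30 min. Aliquots were heated for 3 min across 48°C-58°C, pooled, and brought to 0.5% NP-40 at 4°C; soluble protein was the supernatant after 21,000xg for 90 min. Soluble protein was quantified by TMTpro 16plex LC-MS/MS with channel sums equalised, and reported as log2 fold change in thermal stability against DMSO controls, with values from duplicates.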

Amino acid sequences for entries named in this document (tags omitted). A change or cut given only in a name is not applied to a line headed by its entry.
UniProt Q69YH5: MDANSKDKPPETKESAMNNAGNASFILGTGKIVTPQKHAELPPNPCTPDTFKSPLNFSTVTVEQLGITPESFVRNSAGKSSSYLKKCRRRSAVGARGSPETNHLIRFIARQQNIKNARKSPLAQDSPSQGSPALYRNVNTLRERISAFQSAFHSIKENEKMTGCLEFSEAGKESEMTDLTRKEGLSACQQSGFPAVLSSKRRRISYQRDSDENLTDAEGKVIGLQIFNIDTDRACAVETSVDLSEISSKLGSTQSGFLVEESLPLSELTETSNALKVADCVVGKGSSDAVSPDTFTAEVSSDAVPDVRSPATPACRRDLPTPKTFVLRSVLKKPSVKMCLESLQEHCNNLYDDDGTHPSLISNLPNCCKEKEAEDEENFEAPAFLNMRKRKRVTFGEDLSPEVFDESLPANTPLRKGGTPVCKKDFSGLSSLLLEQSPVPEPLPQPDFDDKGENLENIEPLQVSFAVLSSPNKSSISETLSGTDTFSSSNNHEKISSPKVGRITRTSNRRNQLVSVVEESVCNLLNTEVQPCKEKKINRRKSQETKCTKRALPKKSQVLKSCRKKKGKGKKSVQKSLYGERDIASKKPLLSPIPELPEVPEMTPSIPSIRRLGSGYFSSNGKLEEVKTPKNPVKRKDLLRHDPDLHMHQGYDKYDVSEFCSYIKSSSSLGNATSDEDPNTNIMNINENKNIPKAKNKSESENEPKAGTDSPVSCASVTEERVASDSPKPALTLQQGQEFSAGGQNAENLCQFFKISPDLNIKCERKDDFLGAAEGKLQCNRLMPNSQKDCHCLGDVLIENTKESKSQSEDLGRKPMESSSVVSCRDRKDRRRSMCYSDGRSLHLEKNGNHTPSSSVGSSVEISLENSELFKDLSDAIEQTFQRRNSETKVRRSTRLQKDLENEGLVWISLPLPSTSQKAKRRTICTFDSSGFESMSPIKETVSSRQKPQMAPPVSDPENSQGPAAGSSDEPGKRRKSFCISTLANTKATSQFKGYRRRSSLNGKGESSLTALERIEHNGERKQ
UniProt Q13042, whole entry, looked up: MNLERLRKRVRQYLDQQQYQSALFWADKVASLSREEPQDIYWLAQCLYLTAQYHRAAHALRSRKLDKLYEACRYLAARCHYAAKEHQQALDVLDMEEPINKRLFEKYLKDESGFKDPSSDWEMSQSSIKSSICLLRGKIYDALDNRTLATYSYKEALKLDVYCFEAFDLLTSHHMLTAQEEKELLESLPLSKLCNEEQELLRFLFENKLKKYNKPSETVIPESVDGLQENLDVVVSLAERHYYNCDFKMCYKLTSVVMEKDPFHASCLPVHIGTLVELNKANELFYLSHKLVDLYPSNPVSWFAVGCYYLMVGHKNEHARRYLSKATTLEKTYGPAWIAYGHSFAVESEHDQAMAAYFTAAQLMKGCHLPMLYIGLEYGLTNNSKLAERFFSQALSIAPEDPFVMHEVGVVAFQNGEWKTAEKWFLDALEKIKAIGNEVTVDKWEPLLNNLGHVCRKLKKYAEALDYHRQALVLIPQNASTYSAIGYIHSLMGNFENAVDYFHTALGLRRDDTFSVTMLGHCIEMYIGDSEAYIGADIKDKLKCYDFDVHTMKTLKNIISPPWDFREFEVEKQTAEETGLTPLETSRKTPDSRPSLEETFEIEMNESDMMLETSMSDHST
UniProt O15182: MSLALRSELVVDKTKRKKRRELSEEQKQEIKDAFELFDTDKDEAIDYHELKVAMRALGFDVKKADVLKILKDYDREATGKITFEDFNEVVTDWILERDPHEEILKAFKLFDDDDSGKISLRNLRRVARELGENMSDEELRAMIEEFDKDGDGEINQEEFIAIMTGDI
UniProt Q99618: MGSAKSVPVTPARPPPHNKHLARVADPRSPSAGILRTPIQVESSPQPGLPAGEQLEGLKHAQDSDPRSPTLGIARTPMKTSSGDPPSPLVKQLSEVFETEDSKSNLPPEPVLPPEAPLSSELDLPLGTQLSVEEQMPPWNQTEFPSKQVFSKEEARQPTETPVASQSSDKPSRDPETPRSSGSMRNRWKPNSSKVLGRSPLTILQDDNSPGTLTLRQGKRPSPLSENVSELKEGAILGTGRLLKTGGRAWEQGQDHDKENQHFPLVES
UniProt Q53HL2: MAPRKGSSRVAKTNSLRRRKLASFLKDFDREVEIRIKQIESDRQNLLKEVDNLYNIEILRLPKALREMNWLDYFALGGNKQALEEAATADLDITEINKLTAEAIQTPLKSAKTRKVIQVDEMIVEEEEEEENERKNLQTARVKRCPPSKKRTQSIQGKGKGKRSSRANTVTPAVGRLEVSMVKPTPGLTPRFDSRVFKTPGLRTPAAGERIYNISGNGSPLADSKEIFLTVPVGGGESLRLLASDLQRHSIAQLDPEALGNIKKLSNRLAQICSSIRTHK
UniProt P30305: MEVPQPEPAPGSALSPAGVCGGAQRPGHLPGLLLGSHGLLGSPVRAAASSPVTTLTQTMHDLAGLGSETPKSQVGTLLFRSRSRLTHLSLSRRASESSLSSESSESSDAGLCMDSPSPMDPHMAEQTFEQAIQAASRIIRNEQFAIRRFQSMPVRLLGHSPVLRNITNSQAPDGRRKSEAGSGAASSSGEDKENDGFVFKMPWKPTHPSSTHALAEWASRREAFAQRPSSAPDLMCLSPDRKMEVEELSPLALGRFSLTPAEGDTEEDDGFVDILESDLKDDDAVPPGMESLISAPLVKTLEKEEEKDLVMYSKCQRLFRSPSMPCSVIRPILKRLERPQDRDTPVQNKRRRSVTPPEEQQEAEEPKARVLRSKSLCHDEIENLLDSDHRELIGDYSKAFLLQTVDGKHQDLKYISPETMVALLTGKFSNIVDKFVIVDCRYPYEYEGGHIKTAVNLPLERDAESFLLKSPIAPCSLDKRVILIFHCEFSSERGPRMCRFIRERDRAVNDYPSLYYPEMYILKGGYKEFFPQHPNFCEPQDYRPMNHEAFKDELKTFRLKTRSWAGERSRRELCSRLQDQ
UniProt P41208: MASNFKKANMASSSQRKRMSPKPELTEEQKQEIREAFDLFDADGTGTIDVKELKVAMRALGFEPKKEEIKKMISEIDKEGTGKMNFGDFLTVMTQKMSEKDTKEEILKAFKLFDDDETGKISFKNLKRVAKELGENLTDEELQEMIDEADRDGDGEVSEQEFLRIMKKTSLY
UniProt Q96G23: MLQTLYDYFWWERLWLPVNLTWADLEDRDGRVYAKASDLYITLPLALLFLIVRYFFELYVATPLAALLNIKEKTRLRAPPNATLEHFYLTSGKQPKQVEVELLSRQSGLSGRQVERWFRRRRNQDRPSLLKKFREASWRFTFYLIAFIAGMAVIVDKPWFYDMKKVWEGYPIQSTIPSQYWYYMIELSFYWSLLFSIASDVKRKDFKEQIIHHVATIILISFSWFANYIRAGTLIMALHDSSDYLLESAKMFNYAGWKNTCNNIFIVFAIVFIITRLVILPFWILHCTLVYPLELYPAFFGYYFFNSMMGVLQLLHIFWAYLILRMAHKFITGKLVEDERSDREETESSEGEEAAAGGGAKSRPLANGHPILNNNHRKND
UniProt O95674: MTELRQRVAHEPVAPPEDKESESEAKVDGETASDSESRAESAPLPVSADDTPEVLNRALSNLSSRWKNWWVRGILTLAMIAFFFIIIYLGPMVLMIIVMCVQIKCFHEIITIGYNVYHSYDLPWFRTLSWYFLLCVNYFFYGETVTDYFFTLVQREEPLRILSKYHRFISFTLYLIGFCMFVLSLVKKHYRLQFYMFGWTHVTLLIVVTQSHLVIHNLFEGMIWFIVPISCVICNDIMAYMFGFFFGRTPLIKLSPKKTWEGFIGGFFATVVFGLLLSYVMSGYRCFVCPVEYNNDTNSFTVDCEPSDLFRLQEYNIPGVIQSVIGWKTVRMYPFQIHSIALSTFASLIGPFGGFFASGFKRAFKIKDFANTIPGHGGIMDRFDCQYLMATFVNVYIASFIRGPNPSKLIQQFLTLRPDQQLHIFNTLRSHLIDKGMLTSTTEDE
UniProt O95319: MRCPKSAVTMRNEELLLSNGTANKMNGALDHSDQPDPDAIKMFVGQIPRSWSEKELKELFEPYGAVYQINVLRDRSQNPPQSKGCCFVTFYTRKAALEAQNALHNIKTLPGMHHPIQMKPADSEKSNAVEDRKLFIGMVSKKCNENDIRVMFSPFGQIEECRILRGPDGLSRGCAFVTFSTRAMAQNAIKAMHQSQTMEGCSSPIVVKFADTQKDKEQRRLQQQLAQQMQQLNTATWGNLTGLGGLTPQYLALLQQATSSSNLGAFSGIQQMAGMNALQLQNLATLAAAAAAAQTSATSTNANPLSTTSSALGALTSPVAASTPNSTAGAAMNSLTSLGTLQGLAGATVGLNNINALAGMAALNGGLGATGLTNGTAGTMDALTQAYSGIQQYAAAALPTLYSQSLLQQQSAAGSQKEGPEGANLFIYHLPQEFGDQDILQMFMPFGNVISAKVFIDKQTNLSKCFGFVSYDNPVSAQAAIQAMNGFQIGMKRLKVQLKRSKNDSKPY
UniProt Q9UHN6: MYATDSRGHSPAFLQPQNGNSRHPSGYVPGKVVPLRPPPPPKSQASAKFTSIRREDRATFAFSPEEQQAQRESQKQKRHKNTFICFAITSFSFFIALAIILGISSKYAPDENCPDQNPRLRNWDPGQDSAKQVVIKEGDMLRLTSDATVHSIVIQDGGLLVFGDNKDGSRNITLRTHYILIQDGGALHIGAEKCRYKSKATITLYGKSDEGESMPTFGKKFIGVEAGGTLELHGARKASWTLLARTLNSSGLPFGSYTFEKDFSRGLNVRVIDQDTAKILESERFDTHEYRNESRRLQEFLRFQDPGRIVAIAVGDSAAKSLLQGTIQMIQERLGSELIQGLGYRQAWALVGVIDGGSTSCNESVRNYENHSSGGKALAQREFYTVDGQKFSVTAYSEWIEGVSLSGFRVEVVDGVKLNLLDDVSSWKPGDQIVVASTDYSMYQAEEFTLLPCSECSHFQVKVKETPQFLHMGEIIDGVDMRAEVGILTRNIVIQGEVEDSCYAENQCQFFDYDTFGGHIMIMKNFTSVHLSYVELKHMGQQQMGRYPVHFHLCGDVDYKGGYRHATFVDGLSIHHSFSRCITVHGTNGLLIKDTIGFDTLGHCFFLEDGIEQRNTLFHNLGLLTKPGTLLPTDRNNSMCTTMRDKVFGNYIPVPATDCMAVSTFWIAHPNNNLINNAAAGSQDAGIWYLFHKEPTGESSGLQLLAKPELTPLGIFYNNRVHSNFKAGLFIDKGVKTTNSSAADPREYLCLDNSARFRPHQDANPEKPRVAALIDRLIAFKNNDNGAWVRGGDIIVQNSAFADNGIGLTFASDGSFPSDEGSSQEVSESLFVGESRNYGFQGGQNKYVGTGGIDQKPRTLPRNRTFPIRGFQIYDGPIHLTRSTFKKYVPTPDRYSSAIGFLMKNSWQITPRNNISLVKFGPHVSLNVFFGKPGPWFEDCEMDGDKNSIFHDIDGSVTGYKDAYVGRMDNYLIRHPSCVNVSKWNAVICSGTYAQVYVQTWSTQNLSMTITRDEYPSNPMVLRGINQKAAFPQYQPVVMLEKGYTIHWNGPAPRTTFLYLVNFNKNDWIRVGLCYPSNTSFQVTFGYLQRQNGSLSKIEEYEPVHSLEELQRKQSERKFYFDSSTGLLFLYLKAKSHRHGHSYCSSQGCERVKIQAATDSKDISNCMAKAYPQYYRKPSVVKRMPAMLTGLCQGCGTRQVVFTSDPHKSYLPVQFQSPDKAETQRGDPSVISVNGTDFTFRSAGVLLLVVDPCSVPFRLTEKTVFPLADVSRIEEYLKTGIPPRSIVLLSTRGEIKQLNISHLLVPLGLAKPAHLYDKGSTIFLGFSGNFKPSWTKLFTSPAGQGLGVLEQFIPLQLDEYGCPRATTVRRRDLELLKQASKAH
UniProt P17676: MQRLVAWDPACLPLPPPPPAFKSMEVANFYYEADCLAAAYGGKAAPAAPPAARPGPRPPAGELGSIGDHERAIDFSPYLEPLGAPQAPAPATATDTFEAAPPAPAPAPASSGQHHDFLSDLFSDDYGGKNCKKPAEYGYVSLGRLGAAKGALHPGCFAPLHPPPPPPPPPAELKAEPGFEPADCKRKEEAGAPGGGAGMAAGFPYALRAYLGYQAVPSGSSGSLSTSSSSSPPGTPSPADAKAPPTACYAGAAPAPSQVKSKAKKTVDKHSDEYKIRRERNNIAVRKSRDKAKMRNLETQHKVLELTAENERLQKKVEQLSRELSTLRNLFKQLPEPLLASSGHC
UniProt Q9H3Q1: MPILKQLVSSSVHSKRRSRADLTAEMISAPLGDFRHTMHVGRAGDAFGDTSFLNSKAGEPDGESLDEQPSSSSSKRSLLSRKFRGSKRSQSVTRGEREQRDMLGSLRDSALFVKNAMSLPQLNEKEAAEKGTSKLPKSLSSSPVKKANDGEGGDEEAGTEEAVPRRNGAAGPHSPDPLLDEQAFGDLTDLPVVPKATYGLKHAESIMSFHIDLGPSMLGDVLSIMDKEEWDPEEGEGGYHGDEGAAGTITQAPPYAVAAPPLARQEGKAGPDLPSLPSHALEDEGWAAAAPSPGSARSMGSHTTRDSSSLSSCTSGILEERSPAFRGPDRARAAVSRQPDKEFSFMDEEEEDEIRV

[2] = compound: CC1=C(SC2=C1C(=N[C@H](C3=NN=C(N32)C)CC(=O)N)C4=CC=C(C=C4)Cl)C
Procedure, shortened: as §1

[3] = compound: CC1=C2C(=CC=C1)N=C(N(C2=O)C3=CC=CC=C3C)CN4C=NC5=C(N=CN=C54)N
Procedure, shortened: as §1

[4] = compound: Cc1sc2c(c1C)C(c1ccc(Cl)cc1)=N[C@@H](CC(=O)OC(C)(C)C)c1nnc(C)n1-2
Procedure, shortened: as §1

[5] = compound: c1ccc([C@@H]2C[C@H]2NC2CCNCC2)cc1
Procedure, shortened: as §1

Measured: log2 fold change

CDCA2 (UniProt Q69YH5)
inactive: [1] 0.142 | [2] -0.01 | [3] 0.078 | [4] -0.052 | [5] 0.077

CDC16 (UniProt Q13042)
inactive: [1] -0.038 | [2] 0.027 | [3] 0.025 | [4] 0.03 | [5] 0.021

CDKAL1 (UniProt Q5VV42)
inactive: [1] -0.049 | [2] 0.004 | [3] 0 | [4] 0.005 | [5] 0.044

CERT isoform 3 (UniProt Q9Y5P4)
inactive: [1] -0.013 | [2] 0.007 | [3] 0.025 | [4] 0.015 | [5] 0.027

CETN3 (UniProt O15182)
inactive: [1] 0.049 | [2] -0.012 | [3] -0.006 | [4] -0.013 | [5] -0.021

Quoted at random: two records from the list.
CERT isoform 3 (UniProt Q9Y5P4)
inactive: [1] -0.013 | [2] 0.007 | [3] 0.025 | [4] 0.015 | [5] 0.027

CDCA2 (UniProt Q69YH5)
inactive: [1] 0.142 | [2] -0.01 | [3] 0.078 | [4] -0.052 | [5] 0.077

The results go on:

CDCA3 (UniProt Q99618)
inactive: [1] 0.05 | [2] 0.006 | [3] 0.03 | [4] 0.026 | [5] -0.062

CDK2 (UniProt P24941)
inactive: [1] 0.006 | [2] 0.004 | [3] -0.039 | [4] 0.076 | [5] -0.028

CDC42 isoform 1 (UniProt P60953)
inactive: [1] 0.025 | [2] 0.018 | [3] -0.036 | [4] -0.017 | [5] -0.201

CDC23 (UniProt Q9UJX2)
inactive: [1] 0.003 | [2] -0.034 | [3] 0.011 | [4] 0.019 | [5] 0.047

CENPE (UniProt Q02224)
inactive: [1] -0.068 | [2] 0.013 | [3] 0.059 | [4] -0.01 | [5] -0.066

CDCA8 (UniProt Q53HL2)
inactive: [1] 0.038 | [2] 0.037 | [3] -0.213 | [4] -0.048 | [5] 0.104

CDC25B (UniProt P30305)
inactive: [1] 0.031 | [2] -0.022 | [3] 0.126 | [4] 0.024 | [5] 0.019

CETN2 (UniProt P41208)
inactive: [1] 0.006 | [2] 0.097 | [3] -0.042 | [4] 0.01 | [5] -0.002

CERS2 (UniProt Q96G23)
inactive: [1] -0.038 | [2] 0.007 | [3] -0.019 | [4] 0.061 | [5] 0.12

CDS2 (UniProt O95674)
inactive: [1] 0.01 | [2] 0.004 | [3] -0.056 | [4] -0.034 | [5] -0.024

CDCP1 (UniProt Q9H5V8)
inactive: [1] 0.006 | [2] -0.015 | [3] -0.026 | [4] 0.028 | [5] -0.04

CDC37 (UniProt K7EL68)
inactive: [1] 0 | [2] -0.182 | [3] -0.019 | [5] -0.044

CELF2 isoform 3 (UniProt O95319)
inactive: [1] -0.009 | [2] -0.012 | [3] 0.005 | [4] 0.012 | [5] 0.08

CEMIP2 (UniProt Q9UHN6)
inactive: [1] 0.202 | [2] -0.013 | [3] -0.023 | [4] -0.028 | [5] -0.001

CENPQ (UniProt Q7L2Z9)
inactive: [1] -0.02 | [2] -0.02 | [3] 0.038 | [4] 0.021 | [5] -0.013

CEP44 (UniProt Q9C0F1)
inactive: [1] 0.014 | [2] -0.04 | [3] -0.069 | [4] 0.019 | [5] 0.019

CDC73 (UniProt Q6P1J9)
inactive: [1] -0.014 | [2] -0.011 | [3] 0.03 | [4] 0.006 | [5] 0.045

CEBPB (UniProt P17676)
inactive: [1] 0.063 | [2] -0.067 | [3] -0.09 | [4] 0.127 | [5] -0.114

CD97 (UniProt P48960)
inactive: [1] 0.018 | [2] 0.007 | [3] -0.051 | [4] 0.006 | [5] -0.056

CDC42EP4 (UniProt Q9H3Q1)
inactive: [1] 0.113 | [2] -0.084 | [3] -0.098 | [4] 0.004 | [5] -0.036
